No constants are given. Whether binding was seen depends on the method and setting. In cells and extracts the contact can be indirect. Some binding calls cover weakened binding; strength is not graded here. For some of these results: Where a sequence is shown, tags or fusion partners need not be part of it.
T1: STX17 (endogenous, mouse liver) (mouse (endogenous in liver)) (UniProt Q9D0I4)
T1 sequence: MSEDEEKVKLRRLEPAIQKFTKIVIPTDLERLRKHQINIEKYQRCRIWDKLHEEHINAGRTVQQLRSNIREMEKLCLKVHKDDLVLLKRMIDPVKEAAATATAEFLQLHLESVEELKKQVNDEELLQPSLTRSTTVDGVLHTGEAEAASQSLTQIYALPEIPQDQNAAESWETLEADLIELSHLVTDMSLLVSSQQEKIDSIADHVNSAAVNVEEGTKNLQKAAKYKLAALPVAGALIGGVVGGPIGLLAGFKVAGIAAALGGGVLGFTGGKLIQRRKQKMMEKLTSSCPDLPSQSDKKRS

T2: Myc-ULK1 WT, O75385
T2 chain: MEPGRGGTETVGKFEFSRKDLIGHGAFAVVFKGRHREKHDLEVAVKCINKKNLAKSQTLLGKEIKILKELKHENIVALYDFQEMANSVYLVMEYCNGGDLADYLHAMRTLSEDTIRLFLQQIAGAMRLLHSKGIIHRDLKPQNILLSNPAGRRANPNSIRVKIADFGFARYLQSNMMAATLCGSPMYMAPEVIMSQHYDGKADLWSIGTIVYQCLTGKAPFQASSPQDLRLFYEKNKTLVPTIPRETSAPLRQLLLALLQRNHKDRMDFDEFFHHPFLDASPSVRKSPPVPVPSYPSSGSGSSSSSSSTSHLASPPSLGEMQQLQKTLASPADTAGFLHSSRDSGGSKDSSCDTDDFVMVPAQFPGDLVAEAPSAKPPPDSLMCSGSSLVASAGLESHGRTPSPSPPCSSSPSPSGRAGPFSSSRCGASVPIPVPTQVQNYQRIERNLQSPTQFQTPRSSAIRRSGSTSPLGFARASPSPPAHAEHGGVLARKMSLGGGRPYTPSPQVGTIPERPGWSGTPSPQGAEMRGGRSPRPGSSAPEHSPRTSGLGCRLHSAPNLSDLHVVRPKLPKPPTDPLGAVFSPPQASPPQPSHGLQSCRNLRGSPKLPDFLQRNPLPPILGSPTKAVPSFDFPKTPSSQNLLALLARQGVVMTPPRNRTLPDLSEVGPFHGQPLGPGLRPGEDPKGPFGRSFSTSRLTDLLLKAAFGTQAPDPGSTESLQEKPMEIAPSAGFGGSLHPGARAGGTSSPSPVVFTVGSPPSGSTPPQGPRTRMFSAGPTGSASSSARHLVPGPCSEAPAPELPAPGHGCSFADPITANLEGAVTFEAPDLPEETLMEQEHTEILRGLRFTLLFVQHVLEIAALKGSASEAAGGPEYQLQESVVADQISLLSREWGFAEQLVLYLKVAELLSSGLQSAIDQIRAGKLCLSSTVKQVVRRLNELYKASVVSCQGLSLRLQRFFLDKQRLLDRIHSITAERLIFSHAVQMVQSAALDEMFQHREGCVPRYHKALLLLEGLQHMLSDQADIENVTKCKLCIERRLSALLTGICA

T3: Myc-ULK1, CIP treated, O75385
T3 chain: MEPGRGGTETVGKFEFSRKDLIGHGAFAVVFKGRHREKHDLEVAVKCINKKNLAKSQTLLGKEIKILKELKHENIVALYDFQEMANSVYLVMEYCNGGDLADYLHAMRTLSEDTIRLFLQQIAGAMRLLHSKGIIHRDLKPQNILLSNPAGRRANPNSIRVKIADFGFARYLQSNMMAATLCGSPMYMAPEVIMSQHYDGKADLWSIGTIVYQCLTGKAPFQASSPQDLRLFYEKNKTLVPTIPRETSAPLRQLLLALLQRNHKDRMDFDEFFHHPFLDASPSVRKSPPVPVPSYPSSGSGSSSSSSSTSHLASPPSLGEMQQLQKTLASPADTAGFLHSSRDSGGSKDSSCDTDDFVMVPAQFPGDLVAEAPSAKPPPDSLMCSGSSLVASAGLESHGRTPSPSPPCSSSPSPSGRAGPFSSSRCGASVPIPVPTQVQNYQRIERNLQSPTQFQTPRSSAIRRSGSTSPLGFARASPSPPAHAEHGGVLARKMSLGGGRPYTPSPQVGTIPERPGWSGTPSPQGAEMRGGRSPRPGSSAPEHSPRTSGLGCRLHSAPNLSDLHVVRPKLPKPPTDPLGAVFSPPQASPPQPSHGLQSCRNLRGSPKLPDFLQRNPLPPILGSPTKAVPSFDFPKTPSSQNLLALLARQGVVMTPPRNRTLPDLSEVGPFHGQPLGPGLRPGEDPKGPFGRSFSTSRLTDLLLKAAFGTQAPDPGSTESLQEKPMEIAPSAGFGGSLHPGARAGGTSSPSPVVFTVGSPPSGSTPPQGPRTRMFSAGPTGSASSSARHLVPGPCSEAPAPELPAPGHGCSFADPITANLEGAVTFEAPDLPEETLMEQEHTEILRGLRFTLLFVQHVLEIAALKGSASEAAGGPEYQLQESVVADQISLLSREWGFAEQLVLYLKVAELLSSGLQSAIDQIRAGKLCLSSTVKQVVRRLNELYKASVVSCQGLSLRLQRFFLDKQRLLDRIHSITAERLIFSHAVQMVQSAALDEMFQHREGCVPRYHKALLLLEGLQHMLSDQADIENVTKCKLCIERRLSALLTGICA

T4: Myc-ULK1, PKCα kinase treated, O75385
T4 chain: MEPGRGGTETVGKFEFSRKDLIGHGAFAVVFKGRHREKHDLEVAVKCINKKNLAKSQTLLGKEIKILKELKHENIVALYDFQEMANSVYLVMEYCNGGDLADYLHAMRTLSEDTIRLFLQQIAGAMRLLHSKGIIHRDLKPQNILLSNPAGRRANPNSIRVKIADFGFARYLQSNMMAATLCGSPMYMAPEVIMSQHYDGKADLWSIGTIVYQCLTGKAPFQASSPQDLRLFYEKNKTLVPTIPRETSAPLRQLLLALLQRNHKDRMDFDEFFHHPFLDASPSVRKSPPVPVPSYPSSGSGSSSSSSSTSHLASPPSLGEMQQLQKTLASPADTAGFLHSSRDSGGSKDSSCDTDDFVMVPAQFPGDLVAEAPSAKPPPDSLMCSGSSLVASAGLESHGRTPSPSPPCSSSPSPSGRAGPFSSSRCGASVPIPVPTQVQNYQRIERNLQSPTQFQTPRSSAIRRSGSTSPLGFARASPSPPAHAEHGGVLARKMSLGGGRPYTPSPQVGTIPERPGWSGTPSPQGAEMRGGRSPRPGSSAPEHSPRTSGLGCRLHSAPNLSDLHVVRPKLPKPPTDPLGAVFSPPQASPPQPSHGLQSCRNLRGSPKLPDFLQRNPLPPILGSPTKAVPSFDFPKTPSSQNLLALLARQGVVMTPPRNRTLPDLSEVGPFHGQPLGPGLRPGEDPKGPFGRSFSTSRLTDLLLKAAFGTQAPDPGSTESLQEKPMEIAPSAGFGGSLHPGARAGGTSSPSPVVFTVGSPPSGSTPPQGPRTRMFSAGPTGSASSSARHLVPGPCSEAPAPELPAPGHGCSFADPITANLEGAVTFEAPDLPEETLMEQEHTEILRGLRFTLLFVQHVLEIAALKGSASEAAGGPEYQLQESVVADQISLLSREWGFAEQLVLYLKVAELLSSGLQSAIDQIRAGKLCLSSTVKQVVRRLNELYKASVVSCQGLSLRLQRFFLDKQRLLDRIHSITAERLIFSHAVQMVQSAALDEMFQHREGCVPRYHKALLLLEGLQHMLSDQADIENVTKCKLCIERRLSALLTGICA


Experiments:
[1] = molecular target: T1, STX17 (endogenous, mouse liver) (mouse (endogenous in liver)); assay: co-IP; mouse liver lysate; IP with anti-STX17 antibody, ULK1 detected; mice injected with GÖ6983 or PBS for 7 days, or fasted 16 h or fed
Myc-ULK1 WT, O75385 = molecular target: T2, Myc-ULK1 WT, O75385; assay: co-IP; semi-endogenous: Myc-ULK1 variants transfected, endogenous partners detected in the IP by their antibodies; settings: remark: other sources report otherwise
[2] = molecular target: T3, Myc-ULK1, CIP treated, O75385; assay: pull-down; Myc-ULK1 immunoprecipitated from HEK293, beads split in three and treated with CIP or PKCα kinase assay, then incubated with normal cell lysate; endogenous STX17 detected; only the target purified; settings: remark: other sources report otherwise
[3] = molecular target: T4, Myc-ULK1, PKCα kinase treated, O75385; assay: as above; settings: remark: other sources report otherwise

binding [1] | binding (Myc-ULK1 WT, O75385) | binding [2] | binding [3] | Binder
binds | – | – | – | ULK1 (endogenous, mouse liver) (enzyme, UniProt O70405 1-1051) MEPGRGGVETVGKFEFSRKDLIGHGAFAVVFKGRHREKHDLEVAVKCINKKNLAKSQTLLGKEIKILKELKHENIVALYDFQEMANSVYLVMEYCNGGDLADYLHTMRTLSEDTVRLFLQQIAGAMRLLHSKGIIHRDLKPQNILLSNPGGRRANPSNIRVKIADFGFARYLQSNMMAATLCGSPMYMAPEVIMSQHYDGKADLWSIGTIVYQCLTGKAPFQASSPQDLRLFYEKNKTLVPAIPRETSAPLRQLLLALLQRNHKDRMDFDEFFHHPFLDASTPIKKSPPVPVPSYPSSGSGSSSSSSSASHLASPPSLGEMPQLQKTLTSPADAAGFLQGSRDSGGSSKDSCDTDDFVMVPAQFPGDLVAEAASAKPPPDSLLCSGSSLVASAGLESHGRTPSPSPTCSSSPSPSGRPGPFSSNRYGASVPIPVPTQVHNYQRIEQNLQSPTQQQTARSSAIRRSGSTTPLGFGRASPSPPSHTDGAMLARKLSLGGGRPYTPSPQVGTIPERPSWSRVPSPQGADVRVGRSPRPGSSVPEHSPRTTGLGCRLHSAPNLSDFHVVRPKLPKPPTDPLGATFSPPQTSAPQPCPGLQSCRPLRGSPKLPDFLQRSPLPPILGSPTKAGPSFDFPKTPSSQNLLTLLARQGVVMTPPRNRTLPDLSEASPFHGQQLGSGLRPAEDTRGPFGRSFSTSRITDLLLKAAFGTQASDSGSTDSLQEKPMEIAPSAGFGGTLHPGARGGGASSPAPVVFTVGSPPSGATPPQSTRTRMFSVGSSSSLGSTGSSSARHLVPGACGEAPELSAPGHCCSLADPLAANLEGAVTFEAPDLPEETLMEQEHTETLHSLRFTLAFAQQVLEIAALKGSASEAAGGPEYQLQESVVADQISQLSREWGFAEQLVLYLKVAELLSSGLQTAIDQIRAGKLCLSSTVKQVVRRLNELYKASVVSCQGLSLRLQRFFLDKQRLLDGIHGVTAERLILSHAVQMVQSAALDEMFQHREGCVPRYHKALLLLEGLQHTLTDQADIENIAKCKLCIERRLSALLSGVYA
– | binds | binds | binds | STX17 (endogenous), P56962 1-302 (protein, here or on the partner: phosphorylated by PKCα kinase assay (the paper maps the PKCα site to S423)) MSEDEEKVKLRRLEPAIQKFIKIVIPTDLERLRKHQINIEKYQRCRIWDKLHEEHINAGRTVQQLRSNIREIEKLCLKVRKDDLVLLKRMIDPVKEEASAATAEFLQLHLESVEELKKQFNDEETLLQPPLTRSMTVGGAFHTTEAEASSQSLTQIYALPEIPQDQNAAESWETLEADLIELSQLVTDFSLLVNSQQEKIDSIADHVNSAAVNVEEGTKNLGKAAKYKLAALPVAGALIGGMVGGPIGLLAGFKVAGIAAALGGGVLGFTGGKLIQRKKQKMMEKLTSSCPDLPSQTDKKCS

From paper PMC6113293, “Phosphorylation of ULK1 affects autophagosome fusion and links chaperone-mediated autophagy to macroautophagy” (Nature Communications, 2018)
